± gives the uncertainty stated by the source. Many entries were measured with a wide error.
Test: self-splicing fitness, log relative to wild type (ln ratio); higher = more splicing; Tetrahymena group I intron in knt gene, E. coli kanamycin selection, DiMSum; sequences stand for … in CUCUCU…GGAGGGAAAAGUUAUCAGGCAUGCACCUGGUAGCUAGUCUUUAAACCAAUAGAUUGCAUCGGUUUAAAAGGCAAGACCGUCAAAUUGCGGGAAAGGGGUCAACAGCCGUUCAGUACCAAGUCUCAGGGGAAACUUUGAGAUGGCCUUGCAAAGGGUAUGGUAAUAAGCUGACGGACAUGGUCCUAACCACGCAGCCAAGUCCUAAGUCAACAGAUCUUCUGUUGAUAUGGAUGCAGUUCACAGACUAAAUGUCGGUCGGGGAAGAUGUAUUCUUCUCAUAAGAUAUAGUCGGACCUCUCCUUAAUGGGAGCUAGCGGAUGAAGUGAUGCAACACUGGAGCCGCUGGGAACUAAUUUGUAUGCGAAAGUAUAUUGAUUAGUUUUGGAGUACUCGUGGUCG
Procedure, shortened: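 Colonies from six replicate transformations of E. coli BL21(DE3) were pooled and amplicon-sequenced on an Illumina HiSeq 2500. The library placed an intron with all eight P1ex-region nucleotides randomised inside the knt kanamycin-resistance gene on pET-22b(+), and cells grew overnight at 37°C or 30°C on LB agar with or without 25 μg/mL kanamycin (plus 100 μg/mL carbenicillin, 50 μM IPTG, 0.2% rhamnose). Fitness is the DiMSum error-weighted combination of wild-type-normalised replicate fold changes, kanamycin versus none.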

Sequence | self-splicing fitness (ln) (30 °C) | self-splicing fitness (ln) (37 °C)
UACUAGCAAUAUUACGCACU | -0.822 ± 0.068 | 0.229 ± 0.079
AUUUAGCAAUAUUACGGUUC | -4.68 ± 0.51 | –
AUCAAGCAAUAUUACGGGCA | -1.42 ± 0.098 | -0.95 ± 0.098
GAUGAGCAAUAUUACGCUAC | – | -2.03 ± 0.56
CCUAAGCAAUAUUACGUGAC | – | -2.83 ± 0.54
GUUAAGCAAUAUUACGCCGG | -2.26 ± 0.51 | –
UAGUAGCAAUAUUACGAGAA | -3.23 ± 0.74 | –
GAGCAGCAAUAUUACGUCUC | -2.48 ± 0.15 | -2.23 ± 0.22
GUCAAGCAAUAUUACGUGGC | – | -3.85 ± 0.51
AACCAGCAAUAUUACGGGGU | -3.73 ± 0.14 | -2.88 ± 0.16
GGGAAGCAAUAUUACGGAAU | -3.91 ± 0.59 | –
AUCGAGCAAUAUUACGCUCG | – | -2.31 ± 0.78
AUGGAGCAAUAUUACGCGGA | -2.73 ± 0.29 | -1.34 ± 0.22
CCCAAGCAAUAUUACGGACC | -2.96 ± 0.18 | -2.29 ± 0.26
UCUGAGCAAUAUUACGACUU | – | -2.82 ± 0.54
UAACAGCAAUAUUACGAUCC | -3.13 ± 0.53 | –
GGAGAGCAAUAUUACGAUAG | -4.38 ± 0.73 | –
UUCGAGCAAUAUUACGCACG | -1.61 ± 0.55 | -2.16 ± 1.1
CUCUAGCAAUAUUACGCAUC | -3.63 ± 0.53 | –
AAUUAGCAAUAUUACGAAAC | -2.42 ± 0.55 | –
GAGCAGCAAUAUUACGAAAC | -0.828 ± 0.82 | -1.03 ± 0.93
CUCGAGCAAUAUUACGUCGU | -1.77 ± 0.26 | -1.88 ± 0.37
GUCGAGCAAUAUUACGGCUC | -3.67 ± 0.73 | -2.34 ± 0.66
UCGGAGCAAUAUUACGUGUC | -3.23 ± 0.74 | –

Sequence | self-splicing fitness (ln) (30 °C) | self-splicing fitness (ln) (37 °C)
ACCGAGCAAUAUUACGUCCU | -1.71 ± 0.1 | -0.0861 ± 0.11
AAUGAGCAAUAUUACGAACC | -2.09 ± 0.76 | -1.29 ± 0.87
GUGUAGCAAUAUUACGGUUG | -2.88 ± 0.14 | -2.61 ± 0.16
AUAUAGCAAUAUUACGAAGC | – | -2.86 ± 0.61
AAAAAGCAAUAUUACGUGGG | -3.51 ± 0.13 | -2.03 ± 0.13
CGGUAGCAAUAUUACGCGCU | – | -2.98 ± 0.75
CUCGAGCAAUAUUACGUUCA | – | -3.31 ± 0.52
GGCGAGCAAUAUUACGACCG | -0.74 ± 0.28 | -0.371 ± 0.26
AGGAAGCAAUAUUACGCUCC | – | -1.52 ± 0.54
CAAAAGCAAUAUUACGUAAG | -0.419 ± 0.047 | 0.0644 ± 0.059
GAUGAGCAAUAUUACGUAAC | -1.63 ± 0.12 | -1.9 ± 0.3
GAGUAGCAAUAUUACGCAGC | -4.63 ± 0.58 | –
CUUGAGCAAUAUUACGCGAU | 0.0882 ± 0.84 | –
CGGCAGCAAUAUUACGAGUA | -2.43 ± 0.53 | -3.67 ± 0.6
GUGCAGCAAUAUUACGCACA | -3.26 ± 0.18 | -1.67 ± 0.12
CCUGAGCAAUAUUACGGCAG | -2.92 ± 0.34 | -0.802 ± 0.17
UGUUAGCAAUAUUACGCGGC | -5 ± 0.58 | –
GCUCAGCAAUAUUACGUUUC | -0.455 ± 0.065 | -0.0579 ± 0.091
GUGCAGCAAUAUUACGGUUA | -0.723 ± 0.092 | -0.164 ± 0.089
CGGCAGCAAUAUUACGUAAC | – | -1.78 ± 0.67
CGGGAGCAAUAUUACGCGAG | -2.61 ± 0.54 | –
CAACAGCAAUAUUACGUAUU | -3.48 ± 0.17 | -1.58 ± 0.11
UCGGAGCAAUAUUACGCCUC | -2.87 ± 1.1 | -1.98 ± 0.66
GCAAAGCAAUAUUACGCUUG | -3.98 ± 0.18 | -2.64 ± 0.18

A different layout for some results above:
Sequence	self-splicing fitness (ln) (30 °C)	self-splicing fitness (ln) (37 °C)
GUCAAGCAAUAUUACGUGGC	–	-3.85 ± 0.51
AACCAGCAAUAUUACGGGGU	-3.73 ± 0.14	-2.88 ± 0.16
GGGAAGCAAUAUUACGGAAU	-3.91 ± 0.59	–
AUCGAGCAAUAUUACGCUCG	–	-2.31 ± 0.78
AUGGAGCAAUAUUACGCGGA	-2.73 ± 0.29	-1.34 ± 0.22
CCCAAGCAAUAUUACGGACC	-2.96 ± 0.18	-2.29 ± 0.26
UCUGAGCAAUAUUACGACUU	–	-2.82 ± 0.54
UAACAGCAAUAUUACGAUCC	-3.13 ± 0.53	–
GGAGAGCAAUAUUACGAUAG	-4.38 ± 0.73	–
UUCGAGCAAUAUUACGCACG	-1.61 ± 0.55	-2.16 ± 1.1
CUCUAGCAAUAUUACGCAUC	-3.63 ± 0.53	–
AAUUAGCAAUAUUACGAAAC	-2.42 ± 0.55	–
GAGCAGCAAUAUUACGAAAC	-0.828 ± 0.82	-1.03 ± 0.93
CUCGAGCAAUAUUACGUCGU	-1.77 ± 0.26	-1.88 ± 0.37
GUCGAGCAAUAUUACGGCUC	-3.67 ± 0.73	-2.34 ± 0.66
UCGGAGCAAUAUUACGUGUC	-3.23 ± 0.74	–
ACCGAGCAAUAUUACGUCCU	-1.71 ± 0.1	-0.0861 ± 0.11
AAUGAGCAAUAUUACGAACC	-2.09 ± 0.76	-1.29 ± 0.87
GUGUAGCAAUAUUACGGUUG	-2.88 ± 0.14	-2.61 ± 0.16
AUAUAGCAAUAUUACGAAGC	–	-2.86 ± 0.61
AAAAAGCAAUAUUACGUGGG	-3.51 ± 0.13	-2.03 ± 0.13
CGGUAGCAAUAUUACGCGCU	–	-2.98 ± 0.75
CUCGAGCAAUAUUACGUUCA	–	-3.31 ± 0.52
GGCGAGCAAUAUUACGACCG	-0.74 ± 0.28	-0.371 ± 0.26
AGGAAGCAAUAUUACGCUCC	–	-1.52 ± 0.54
CAAAAGCAAUAUUACGUAAG	-0.419 ± 0.047	0.0644 ± 0.059
GAUGAGCAAUAUUACGUAAC	-1.63 ± 0.12	-1.9 ± 0.3
GAGUAGCAAUAUUACGCAGC	-4.63 ± 0.58	–
CUUGAGCAAUAUUACGCGAU	0.0882 ± 0.84	–

(next part)

Sequence | self-splicing fitness (ln) (30 °C) | self-splicing fitness (ln) (37 °C)
UCGGAGCAAUAUUACGCAUA | -1.93 ± 1.2 | -2.3 ± 0.55
UCAAAGCAAUAUUACGCUCC | -3.3 ± 0.54 | –
UCCAAGCAAUAUUACGAAUC | -3.6 ± 0.78 | –
AUGAAGCAAUAUUACGUCCU | -0.113 ± 0.093 | 0.0551 ± 0.11
GGUGAGCAAUAUUACGCUAC | – | -3.94 ± 0.59
AUUGAGCAAUAUUACGAUGG | -2.84 ± 0.25 | –
AGAGAGCAAUAUUACGACCA | -1.27 ± 1 | –
GAGUAGCAAUAUUACGGUAG | – | -1.83 ± 0.65
GAGCAGCAAUAUUACGAAAA | – | -3.16 ± 0.6
CGUUAGCAAUAUUACGUCAC | -2.67 ± 0.55 | 0.859 ± 0.64
AUCCAGCAAUAUUACGGACC | -1.71 ± 0.13 | 0.282 ± 0.13
UCGGAGCAAUAUUACGUAGU | -3.9 ± 1 | –
UGGUAGCAAUAUUACGGGCC | – | -2.94 ± 0.75
AAGAAGCAAUAUUACGCCAC | -3.5 ± 0.52 | –
UUUGAGCAAUAUUACGGGUA | – | -2.24 ± 0.5
UAUGAGCAAUAUUACGGGAC | -6.35 ± 1 | –
CAAGAGCAAUAUUACGUAGC | -4.03 ± 0.73 | –
AGCCAGCAAUAUUACGUUUA | -2.7 ± 0.35 | -2.48 ± 0.38
UGUGAGCAAUAUUACGGAUC | -4.47 ± 1 | 0.033 ± 0.61
UAAGAGCAAUAUUACGAGUC | – | -3.47 ± 0.52
UGUCAGCAAUAUUACGACAC | – | -1 ± 0.65
AUGCAGCAAUAUUACGAAAA | -3.33 ± 0.77 | –
UGCGAGCAAUAUUACGCUAU | -4.54 ± 1 | –
CGUGAGCAAUAUUACGCCUU | -3.66 ± 1 | –

Sequence | self-splicing fitness (ln) (30 °C) | self-splicing fitness (ln) (37 °C)
CUUAAGCAAUAUUACGACUC | – | -1.9 ± 0.68
GUGGAGCAAUAUUACGGGUC | -2.25 ± 0.55 | -2.26 ± 0.6
CCUAAGCAAUAUUACGGUAC | -2.81 ± 0.22 | -2.17 ± 0.34
CGGAAGCAAUAUUACGCAUC | -3.66 ± 1 | -3.11 ± 0.61
GCACAGCAAUAUUACGAUGC | -3.17 ± 0.2 | -1.88 ± 0.17
UAAAAGCAAUAUUACGCCUC | – | -2.32 ± 0.64
CCCAAGCAAUAUUACGUCUC | -2.71 ± 0.15 | -2.25 ± 0.26
UUAGAGCAAUAUUACGACAC | -0.135 ± 1.2 | -0.693 ± 1.4
CUUUAGCAAUAUUACGUACC | -2.79 ± 0.56 | –
CGAGAGCAAUAUUACGAUUG | -4.54 ± 1 | –
GCCGAGCAAUAUUACGCAAA | -2.02 ± 1.2 | –
UUCGAGCAAUAUUACGACUC | -3.26 ± 1 | -1.29 ± 1.2
AGCGAGCAAUAUUACGCAAU | -3.03 ± 0.75 | -2.3 ± 0.77
CUUUAGCAAUAUUACGCUGA | – | -2.7 ± 0.55
UCUGAGCAAUAUUACGUUCC | -2.21 ± 1.1 | -1.36 ± 0.62
GCCCAGCAAUAUUACGCACG | – | -3.28 ± 0.52
AGAUAGCAAUAUUACGCUUC | -2.66 ± 0.42 | -2.27 ± 0.49
UCCGAGCAAUAUUACGACGC | -4.48 ± 1 | –
CGGUAGCAAUAUUACGCGCC | -2.13 ± 0.72 | -2.76 ± 0.75
CUAGAGCAAUAUUACGAUCC | – | -0.404 ± 0.51
UCAGAGCAAUAUUACGCACC | -4.73 ± 1 | –
CGACAGCAAUAUUACGCGAG | -1.5 ± 0.16 | -2.32 ± 0.21
UGACAGCAAUAUUACGGCCG | -0.739 ± 0.14 | 0.186 ± 0.19
AGGAAGCAAUAUUACGCAUC | -3.94 ± 0.6 | –

Sequence | self-splicing fitness (ln) (30 °C) | self-splicing fitness (ln) (37 °C)
UGUUAGCAAUAUUACGUUAC | – | -2.84 ± 0.61
CCGGAGCAAUAUUACGUCCG | – | -3.74 ± 1
GCAGAGCAAUAUUACGUCAG | -4.7 ± 0.51 | –
UUGGAGCAAUAUUACGUGCA | -4.66 ± 0.72 | –
UGAGAGCAAUAUUACGUGGC | -4.93 ± 1 | -2.12 ± 0.77
UUGCAGCAAUAUUACGGCGG | -1.7 ± 0.081 | -1.01 ± 0.11
CGAGAGCAAUAUUACGACAC | – | -1.98 ± 1.1
GUUGAGCAAUAUUACGAUGA | -3.58 ± 0.62 | –
UGUAAGCAAUAUUACGUCUC | -3.85 ± 0.61 | –
GGGGAGCAAUAUUACGCCGA | – | -1.36 ± 0.84
UGAUAGCAAUAUUACGAAGC | – | -3.43 ± 0.6
UAUGAGCAAUAUUACGGCAC | – | -2.72 ± 0.61
UAUGAGCAAUAUUACGUCAA | -3.66 ± 0.52 | –
GCGGAGCAAUAUUACGUACA | -2.35 ± 0.6 | -2.18 ± 0.64
CGUCAGCAAUAUUACGCCAC | -4.53 ± 0.51 | –
GGUGAGCAAUAUUACGCCAC | – | -3.12 ± 1
UUCGAGCAAUAUUACGGGCU | -5.9 ± 1 | –
GCCGAGCAAUAUUACGUUCG | -2.72 ± 0.26 | -2 ± 0.34
UUUGAGCAAUAUUACGAAUC | -3.75 ± 1 | -1.77 ± 0.59
UCGGAGCAAUAUUACGAGGC | -2.74 ± 0.42 | -2.93 ± 0.75
CUCGAGCAAUAUUACGCUCU | -3.31 ± 1 | -3.08 ± 1

Reference: the supplement of paper PMC7877785
